Measurements published in article PMC7719784.

The chains behind the UniProt entries cited, without tags or fusion partners. Where a name states a change or a piece, a line headed by the entry shows the natural chain unless it says otherwise.
UniProt Q7ZVG6: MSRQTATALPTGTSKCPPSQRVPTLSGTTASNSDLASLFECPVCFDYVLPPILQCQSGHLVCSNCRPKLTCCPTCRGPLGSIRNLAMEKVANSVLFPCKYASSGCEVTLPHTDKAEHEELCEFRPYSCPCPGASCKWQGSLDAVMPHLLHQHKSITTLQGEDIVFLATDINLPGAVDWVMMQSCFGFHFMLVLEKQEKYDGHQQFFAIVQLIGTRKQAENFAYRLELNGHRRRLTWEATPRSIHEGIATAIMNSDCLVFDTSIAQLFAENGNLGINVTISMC

Molecular target: T1, Cdhr1a-FLAG (zebrafish) (UniProt Q6B3P0)
T1 sequence: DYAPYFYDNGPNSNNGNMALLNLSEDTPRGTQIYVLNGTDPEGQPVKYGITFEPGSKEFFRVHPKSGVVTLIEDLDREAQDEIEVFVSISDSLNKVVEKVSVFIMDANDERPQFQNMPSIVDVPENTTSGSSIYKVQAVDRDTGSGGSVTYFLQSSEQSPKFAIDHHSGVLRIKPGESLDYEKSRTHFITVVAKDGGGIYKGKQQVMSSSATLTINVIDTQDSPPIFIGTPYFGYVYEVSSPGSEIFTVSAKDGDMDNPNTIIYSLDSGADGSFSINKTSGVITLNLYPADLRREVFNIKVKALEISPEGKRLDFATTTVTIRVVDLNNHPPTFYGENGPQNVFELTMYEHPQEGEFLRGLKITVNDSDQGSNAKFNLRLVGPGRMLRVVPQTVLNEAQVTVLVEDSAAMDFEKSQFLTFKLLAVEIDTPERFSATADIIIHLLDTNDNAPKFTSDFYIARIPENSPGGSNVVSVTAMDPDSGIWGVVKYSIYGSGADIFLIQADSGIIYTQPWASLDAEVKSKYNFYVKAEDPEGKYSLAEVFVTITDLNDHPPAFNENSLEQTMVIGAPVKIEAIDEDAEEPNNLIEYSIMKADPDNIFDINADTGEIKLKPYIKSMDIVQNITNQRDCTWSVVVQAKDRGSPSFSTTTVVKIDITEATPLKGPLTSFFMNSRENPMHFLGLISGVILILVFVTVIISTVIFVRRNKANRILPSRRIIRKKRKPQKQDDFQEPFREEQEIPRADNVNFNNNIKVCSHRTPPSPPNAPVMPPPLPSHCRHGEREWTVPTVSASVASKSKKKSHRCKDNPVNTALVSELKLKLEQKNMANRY
Assay: co-IP; HEK 293 cells co-transfected with Cdhr1a-FLAG and Siah1-myc or Siah1ΔRING-myc; treated with MG132 for 6 h prior to lysis; precipitated with FLAG antibodies; blot probed for FLAG and MYC

“Siah1ΔRING-myc (from UniProt Q7ZVG6) (enzyme)” was tested, and the binding was “binds”.

No constants are given. Whether binding was seen depends on the method and setting. Binding seen in cells or lysates may run through a third protein. Binding calls can cover weak binding; strength is not graded here. Sequences can lack the tags named with a protein.
